# Test results taken from PubChem BioAssay AID192 (DTP/NCI, 2004).
# The list shows only some results of the screen, not a fair sample: it is rich in T/C values a quarter to a half above the control, in often repeated tests (any T/C) and in doses without a T/C. Other doses and runs of a compound stand elsewhere. T/C: endpoint of the treated group in % of that of the vehicle group. Some entries give survivors of the animals treated and no T/C: the source holds a T/C of zero for them, seemingly a mark for toxic or unscored doses. Some doses without a T/C left all or most animals alive at the check, yet need not have been tolerated: the source hardly ever lists a survival T/C far under the control, and the zero likely stands for such cases as well. Survivors were counted at the toxicity check, usually on the fifth day, unless a day is given; later deaths do not show. Schedule codes are those of the source, read here as Q, the interval in days (D) or hours (H), X, the number of doses. Some molecules as drawn cover several salts, stereoisomers or complexes of the source; a dose is that of the sample tested. Brackets with × give the number of equal values in this list. Some doses were run more than once; the values are given in rising order. For survival time, this PubChem deposit counts one and a half times the control or more as active, and values a quarter to a half above the control carry no call in these data; other NCI protocols may use other cut-offs. Some T/C values carry the count of animals alive at the toxicity check (mostly the fifth day); where none is given, no animal had died by that day.
# System: BDF1 mice, B16 melanoma ip, median survival T/C
# Test: NCI In Vivo Anticancer Drug Screen. Data for tumor model B16 Melanoma (intraperitoneal) in B6D2F1 (BDF1) mice
# Conditions: T/C endpoint: median survival time, higher T/C = longer survival
# Procedure, shortened: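 Survival or tumor size is measured after treatment of tumor-bearing mice and normalised to the vehicle-treated control group.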
structure (smiles),measurement,setting,value
COc1cc(NS(C)(=O)=O)ccc1Nc1c2ccccc2nc2ccccc12,T/C,"dose: 0.25 mg/kg/injection, schedule: Q01DX009 (ip), vehicle: Klucel (hydroxypropylcellulose) (HPC)",138 % of control
same,T/C,"dose: 0.25 mg/kg/injection, schedule: Q01DX009 (ip), vehicle: other",126 % of control (2×)
same,T/C,"dose: 0.4 mg/kg/injection, schedule: Q01DX009 (ip), vehicle: saline",140 % of control
same,T/C,"dose: 0.5 mg/kg/injection, schedule: Q01DX009 (ip), vehicle: Klucel (hydroxypropylcellulose) (HPC)",126 % of control
same,T/C,"dose: 0.5 mg/kg/injection, schedule: Q01DX009 (ip), vehicle: clinical formulation",146 % of control (2×)
same,T/C,"dose: 0.5 mg/kg/injection, schedule: Q01DX009 (ip), vehicle: other",128 (2×) and 129 % of control
same,T/C,"dose: 0.6 mg/kg/injection, schedule: Q01DX009 (ip), vehicle: saline",145 % of control
same,T/C,"dose: 1.0 mg/kg/injection, schedule: Q01DX009 (ip), vehicle: other, evaluated on day 45",161 % of control
same,T/C,"dose: 1.0 mg/kg/injection, schedule: Q01DX009 (ip), vehicle: other, evaluated on day 60",145 (2×) and 161 % of control
same,T/C,"dose: 1.0 mg/kg/injection, schedule: Q01DX009 (ip), vehicle: other, evaluated on day 70",126 % of control [9 of 10 alive]
same,T/C,"dose: 1.0 mg/kg/injection, schedule: Q04DX003 (ip), vehicle: other, evaluated on day 8",124 % of control
same,T/C,"dose: 1.0 mg/kg/injection, schedule: Q04DX003 (ip), vehicle: other, evaluated on day 45",160 % of control
same,T/C,"dose: 1.0 mg/kg/injection, schedule: Q04DX003 (ip), vehicle: other, evaluated on day 60",110 and 129 % of control
same,T/C,"dose: 2.0 mg/kg/injection, schedule: Q01DX001 (ip), vehicle: lactic acid",131 % of control
same,T/C,"dose: 2.0 mg/kg/injection, schedule: Q01DX009 (ip), vehicle: other, evaluated on day 45",158 % of control
same,T/C,"dose: 2.0 mg/kg/injection, schedule: Q01DX009 (ip), vehicle: other, evaluated on day 60",175 [9 of 10 alive] and 198 % of control
same,T/C,"dose: 2.0 mg/kg/injection, schedule: Q01DX009 (ip), vehicle: other, evaluated on day 70",131 and 142 % of control
same,T/C,"dose: 2.0 mg/kg/injection, schedule: Q04DX003 (ip), vehicle: other, evaluated on day 8",117 % of control
same,T/C,"dose: 2.0 mg/kg/injection, schedule: Q04DX003 (ip), vehicle: other, evaluated on day 10",112 % of control
same,T/C,"dose: 2.0 mg/kg/injection, schedule: Q04DX003 (ip), vehicle: other, evaluated on day 45",156 % of control
same,T/C,"dose: 2.0 mg/kg/injection, schedule: Q04DX003 (ip), vehicle: other, evaluated on day 60","131, 132, 137 % of control"
same,T/C,"dose: 3.0 mg/kg/injection, schedule: Q01DX009 (ip), vehicle: other",136 % of control
same,T/C,"dose: 4.0 mg/kg/injection, schedule: Q01DX001 (ip), vehicle: lactic acid",134 % of control
same,T/C,"dose: 4.0 mg/kg/injection, schedule: Q01DX009 (ip), vehicle: Klucel (hydroxypropylcellulose) (HPC)","180, 199, 278, 282 % of control"
same,survivor count,"dose: 4.0 mg/kg/injection, schedule: Q01DX009 (ip), vehicle: clinical formulation",10 of 10 (2×)
same,survivor count,"dose: 4.0 mg/kg/injection, schedule: Q01DX009 (ip), vehicle: lactic acid",10 of 10
same,T/C,"dose: 4.0 mg/kg/injection, schedule: Q01DX009 (ip), vehicle: other, evaluated on day 60",217 and 243 % of control
same,T/C,"dose: 4.0 mg/kg/injection, schedule: Q01DX009 (ip), vehicle: other, evaluated on day 70",137 % of control
same,survivor count,"dose: 4.0 mg/kg/injection, schedule: Q01DX009 (ip), vehicle: other",10 of 10 (3×)
same,survivor count,"dose: 4.0 mg/kg/injection, schedule: Q03HX016 (oral), vehicle: lactic acid",6 of 10
same,survivor count,"dose: 4.0 mg/kg/injection, schedule: Q03HX024 (oral), vehicle: lactic acid",0 of 10
same,T/C,"dose: 4.0 mg/kg/injection, schedule: Q04DX003 (ip), vehicle: other, evaluated on day 8",124 % of control
same,T/C,"dose: 4.0 mg/kg/injection, schedule: Q04DX003 (ip), vehicle: other, evaluated on day 10",122 % of control
same,T/C,"dose: 4.0 mg/kg/injection, schedule: Q04DX003 (ip), vehicle: other, evaluated on day 45",150 % of control
same,T/C,"dose: 4.0 mg/kg/injection, schedule: Q04DX003 (ip), vehicle: other, evaluated on day 60",157 and 159 % of control
same,T/C,"dose: 4.0 mg/kg/injection, schedule: Q04DX003 (ip), vehicle: other, evaluated on day 70",137 % of control
same,survivor count,"dose: 5.0 mg/kg/injection, schedule: Q01DX009 (ip), vehicle: saline",10 of 10
same,survivor count,"dose: 6.0 mg/kg/injection, schedule: Q01DX009 (ip), vehicle: Klucel (hydroxypropylcellulose) (HPC)",10 of 10
same,survivor count,"dose: 8.0 mg/kg/injection, schedule: Q01DX009 (ip), vehicle: Klucel (hydroxypropylcellulose) (HPC)",9 of 10 and 10 of 10 (2×)
same,survivor count,"dose: 8.0 mg/kg/injection, schedule: Q01DX009 (ip), vehicle: clinical formulation",10 of 10 (2×)
same,survivor count,"dose: 8.0 mg/kg/injection, schedule: Q01DX009 (ip), vehicle: lactic acid",10 of 10
same,survivor count,"dose: 8.0 mg/kg/injection, schedule: Q01DX009 (ip), vehicle: other",8 of 10 and 10 of 10 (5×)
same,survivor count,"dose: 8.0 mg/kg/injection, schedule: Q01DX009 (oral), vehicle: lactic acid",9 of 10
same,survivor count,"dose: 8.0 mg/kg/injection, schedule: Q03HX016 (oral), vehicle: lactic acid",1 of 10
same,survivor count,"dose: 8.0 mg/kg/injection, schedule: Q03HX024 (oral), vehicle: lactic acid",0 of 10
same,T/C,"dose: 8.0 mg/kg/injection, schedule: Q04DX003 (ip), vehicle: other, evaluated on day 8",130 % of control
same,T/C,"dose: 8.0 mg/kg/injection, schedule: Q04DX003 (ip), vehicle: other, evaluated on day 10",129 % of control
same,T/C,"dose: 8.0 mg/kg/injection, schedule: Q04DX003 (ip), vehicle: other, evaluated on day 45",89 % of control
